Experimental data: PMC10781510

Chains of the proteins cited; added tags and fusions are not shown.
UniProt Q9JLV5: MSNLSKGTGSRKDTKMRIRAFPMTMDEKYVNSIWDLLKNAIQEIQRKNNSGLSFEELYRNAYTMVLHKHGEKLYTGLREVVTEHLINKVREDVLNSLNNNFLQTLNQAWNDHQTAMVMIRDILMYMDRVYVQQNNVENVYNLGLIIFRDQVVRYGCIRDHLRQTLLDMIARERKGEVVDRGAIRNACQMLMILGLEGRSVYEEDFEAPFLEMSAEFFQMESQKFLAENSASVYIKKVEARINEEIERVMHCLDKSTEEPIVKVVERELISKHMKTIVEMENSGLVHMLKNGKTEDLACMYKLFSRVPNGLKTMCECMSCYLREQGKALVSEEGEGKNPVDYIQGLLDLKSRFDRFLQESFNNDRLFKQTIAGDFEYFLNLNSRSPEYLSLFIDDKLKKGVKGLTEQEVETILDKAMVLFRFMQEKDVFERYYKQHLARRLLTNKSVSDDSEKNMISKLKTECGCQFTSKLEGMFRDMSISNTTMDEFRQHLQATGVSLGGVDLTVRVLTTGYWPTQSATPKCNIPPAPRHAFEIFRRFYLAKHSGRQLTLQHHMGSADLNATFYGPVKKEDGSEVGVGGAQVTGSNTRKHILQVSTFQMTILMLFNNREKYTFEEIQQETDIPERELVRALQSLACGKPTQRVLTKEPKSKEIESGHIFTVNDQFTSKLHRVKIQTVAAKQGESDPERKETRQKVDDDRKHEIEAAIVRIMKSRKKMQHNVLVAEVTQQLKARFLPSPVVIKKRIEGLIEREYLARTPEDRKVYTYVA
UniProt Q80TT8: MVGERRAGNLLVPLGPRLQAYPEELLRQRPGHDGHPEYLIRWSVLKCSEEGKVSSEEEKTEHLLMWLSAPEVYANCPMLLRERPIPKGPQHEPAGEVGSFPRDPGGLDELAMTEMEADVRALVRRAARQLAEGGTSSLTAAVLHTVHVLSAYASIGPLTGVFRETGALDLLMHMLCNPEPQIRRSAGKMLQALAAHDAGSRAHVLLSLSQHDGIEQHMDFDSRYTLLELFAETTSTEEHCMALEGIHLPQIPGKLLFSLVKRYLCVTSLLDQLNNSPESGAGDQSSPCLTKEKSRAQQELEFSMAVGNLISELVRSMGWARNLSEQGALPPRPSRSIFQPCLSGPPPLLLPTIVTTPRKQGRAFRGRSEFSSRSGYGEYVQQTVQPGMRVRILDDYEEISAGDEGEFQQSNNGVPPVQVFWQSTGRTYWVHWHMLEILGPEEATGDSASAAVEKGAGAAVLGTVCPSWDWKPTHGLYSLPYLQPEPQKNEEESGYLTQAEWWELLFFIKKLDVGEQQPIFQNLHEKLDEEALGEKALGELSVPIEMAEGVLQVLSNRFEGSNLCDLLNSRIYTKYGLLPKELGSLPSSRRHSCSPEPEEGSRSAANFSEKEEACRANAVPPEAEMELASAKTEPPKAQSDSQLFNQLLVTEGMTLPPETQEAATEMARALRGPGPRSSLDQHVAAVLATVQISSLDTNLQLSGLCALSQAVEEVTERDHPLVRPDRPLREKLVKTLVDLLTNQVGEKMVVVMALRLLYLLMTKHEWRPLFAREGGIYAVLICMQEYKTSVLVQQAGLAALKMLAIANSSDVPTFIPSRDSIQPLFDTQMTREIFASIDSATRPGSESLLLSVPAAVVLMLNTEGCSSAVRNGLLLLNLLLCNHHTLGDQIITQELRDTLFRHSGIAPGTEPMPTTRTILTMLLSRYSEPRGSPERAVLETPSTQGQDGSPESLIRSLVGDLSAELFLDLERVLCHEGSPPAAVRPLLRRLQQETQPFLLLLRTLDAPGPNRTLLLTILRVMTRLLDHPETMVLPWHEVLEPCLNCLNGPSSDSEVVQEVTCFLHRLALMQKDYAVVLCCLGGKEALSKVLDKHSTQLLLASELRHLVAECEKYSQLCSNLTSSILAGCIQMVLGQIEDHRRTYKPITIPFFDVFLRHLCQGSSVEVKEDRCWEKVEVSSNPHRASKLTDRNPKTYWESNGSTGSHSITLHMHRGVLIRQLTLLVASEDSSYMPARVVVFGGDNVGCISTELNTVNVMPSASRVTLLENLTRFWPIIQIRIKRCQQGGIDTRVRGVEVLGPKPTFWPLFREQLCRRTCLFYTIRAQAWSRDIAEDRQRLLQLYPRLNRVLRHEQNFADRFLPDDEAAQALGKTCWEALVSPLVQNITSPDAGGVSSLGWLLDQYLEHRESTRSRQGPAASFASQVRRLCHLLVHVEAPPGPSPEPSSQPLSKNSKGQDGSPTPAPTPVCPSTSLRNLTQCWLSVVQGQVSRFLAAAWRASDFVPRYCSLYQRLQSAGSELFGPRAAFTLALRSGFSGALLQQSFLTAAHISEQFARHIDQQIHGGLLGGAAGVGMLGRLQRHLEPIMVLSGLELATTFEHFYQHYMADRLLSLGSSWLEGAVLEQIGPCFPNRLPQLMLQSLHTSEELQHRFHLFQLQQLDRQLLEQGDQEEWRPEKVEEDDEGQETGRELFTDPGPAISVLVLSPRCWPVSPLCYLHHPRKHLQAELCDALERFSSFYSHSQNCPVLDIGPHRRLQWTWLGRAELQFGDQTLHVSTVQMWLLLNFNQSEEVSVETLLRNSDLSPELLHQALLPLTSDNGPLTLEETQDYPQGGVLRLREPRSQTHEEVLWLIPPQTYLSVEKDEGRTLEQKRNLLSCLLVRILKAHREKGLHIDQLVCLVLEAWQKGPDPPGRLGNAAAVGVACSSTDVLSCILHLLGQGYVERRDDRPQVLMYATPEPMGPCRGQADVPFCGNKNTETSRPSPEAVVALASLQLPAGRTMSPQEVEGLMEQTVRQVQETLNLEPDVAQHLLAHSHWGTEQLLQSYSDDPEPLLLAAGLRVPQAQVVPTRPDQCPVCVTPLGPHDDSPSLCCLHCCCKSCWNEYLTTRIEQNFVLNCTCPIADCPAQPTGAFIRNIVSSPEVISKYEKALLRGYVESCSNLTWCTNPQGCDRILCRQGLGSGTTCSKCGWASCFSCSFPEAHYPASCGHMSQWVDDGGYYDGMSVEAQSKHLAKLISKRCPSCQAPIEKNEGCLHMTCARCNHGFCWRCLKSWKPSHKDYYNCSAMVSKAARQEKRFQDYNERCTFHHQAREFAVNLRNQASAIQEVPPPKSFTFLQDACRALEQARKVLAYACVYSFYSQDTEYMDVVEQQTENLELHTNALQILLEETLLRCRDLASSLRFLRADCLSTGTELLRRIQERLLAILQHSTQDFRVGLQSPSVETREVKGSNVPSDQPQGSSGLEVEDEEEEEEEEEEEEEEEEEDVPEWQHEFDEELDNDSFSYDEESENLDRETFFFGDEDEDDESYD

T1: GASZ (endogenous, testis) (mouse (endogenous in testis)) (UniProt Q8VD46)
T1 sequence: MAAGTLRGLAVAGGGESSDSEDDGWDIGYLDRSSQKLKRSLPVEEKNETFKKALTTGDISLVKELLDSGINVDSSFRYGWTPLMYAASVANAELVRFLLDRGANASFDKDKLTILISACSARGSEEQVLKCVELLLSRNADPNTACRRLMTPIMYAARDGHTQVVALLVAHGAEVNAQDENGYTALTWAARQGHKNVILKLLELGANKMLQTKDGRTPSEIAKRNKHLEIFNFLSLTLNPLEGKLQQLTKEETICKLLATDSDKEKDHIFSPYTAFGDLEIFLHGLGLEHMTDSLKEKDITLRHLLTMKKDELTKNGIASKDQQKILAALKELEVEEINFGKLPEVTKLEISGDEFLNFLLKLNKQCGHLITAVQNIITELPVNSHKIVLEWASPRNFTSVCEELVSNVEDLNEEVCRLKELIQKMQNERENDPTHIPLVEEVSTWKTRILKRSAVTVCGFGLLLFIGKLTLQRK

B1: TRIM21 (enzyme, UniProt Q62191 1-470)
chain: MSPSTTSKMSLEKMWEEVTCSICLDPMVEPMSIECGHCFCKECIFEVGKNGGSSCPECRQQFLLRNLRPNRHIANMVENLKQIAQNTKKSTQETHCMKHGEKLHLFCEEDGQALCWVCAQSGKHRDHTRVPIEEAAKVYQEKIHVVLEKLRKGKELAEKMEMDLTMQRTDWKRNIDTQKSRIHAEFALQNSLLAQEEQRQLQRLEKDQREYLRLLGKKEAELAEKNQALQELISELERRIRGSELELLQEVRIILERSGSWNLDTLDIDAPDLTSTCPVPGRKKMLRTCWVHITLDRNTANSWLIISKDRRQVRMGDTHQNVSDNKERFSNYPMVLGAQRFSSGKMYWEVDVTQKEAWDLGVCRDSVQRKGQFSLSPENGFWTIWLWQDSYEAGTSPQTTLHIQVPPCQIGIFVDYEAGVVSFYNITDHGSLIYTFSECVFAGPLRPFFNVGFNYSGGNAAPLKLCPLKM

target: T1, GASZ (endogenous, testis) (mouse (endogenous in testis)); assay: affinity purification with mass spectrometry; testes homogenised in lysis buffer, cleared supernatant with a GASZ antibody and protein A/G-agarose beads, LC/MS

binding, binds:
CULLN3 (CUL3) (from UniProt Q9JLV5 1-768) (enzyme)
CULLN9 (CUL9) (from UniProt Q80TT8 1-2530) (enzyme)
MYCBP2 (from UniProt Q7TPH6 1-4749) (enzyme)
B1

These are yes or no findings as the source states them, for the method shown. Binding seen in cells or lysates may run through a third protein. A yes stands for co-enrichment or nearness to the bait. Other partners may have been found.
